Experimental findings from PubChem BioAssay AID2685 (National Center for Advancing Translational Sciences (NCATS), 2010) are described below.

The experiment can be described thus: qHTS Assay for Lipid Storage Modulators in Drosophila S3 Cells.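 As to cell number change: cells counted by Cell Tracker Red CMTPX staining in the red channel.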 The conditions noted are these: BODIPY lipid droplet fluorescence, 18-24 h; for cell number change: measured here: cell count max response, cells fed with added oleic acid. Summed up:
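Drosophila S3 cells loaded with oleic acid (400 uM, as added) and compounds at several concentrations; lipid droplets imaged by 488-nm laser-scanning cytometry, 500–530 nm intensity and object ratio to cell channel. Percent activity normalized to 20 uM Triacsin C.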
(qHTS replaces the single test concentration by a dilution series.)

Where [1] appears, read: measured here: lipid fluorescence (Fed channel) AC50, cells fed with added oleic acid.
Where [2] appears, read: measured here: cell number channel AC50, cells fed with added oleic acid.

Molecules are shown by their SMILES. The list shows a part of the results. These are further read-outs of the screen, such as a control signal, another cell line or another target. No call is given for them. The list favours compounds with an active or inconclusive main result. The note in brackets gives the kind of curve behind each potency; many fits are weak.

The AC50 is the midpoint of the concentration-response curve, whichever way the signal moves. The low end stands for activity at low concentration, the high end for activity only at high concentration.

Regarding `COc1ccccc1C1C(C(N)=O)=C(C)Nc2ncnn21` (stereo unspecified), the cell number change came to 3.81%. Besides, the AC50 under setting [1] is 0.82 µM [falling, single point].

In the case of `N#Cc1c(=O)c2nc(NCc3ccccc3)ncc2n2ccccc12`, the cell number change came out at 41.4%. In addition, the AC50 under setting [2] was 0.58 µM [rising, partial curve].

Regarding `Cc1ccc(SCCOCCN2CCc3ccccc3C2)cc1`, the cell number change is -34.5%. Moreover, under setting [2], the AC50 was 29.1 µM [falling, single point]. For the same molecule, the AC50 under setting [1] was 29.1 µM [falling, single point].

In the case of `Cc1ccc(S(=O)(=O)N2CCCCC2C(=O)N(C)c2ccccc2)cc1` (stereo unspecified), the cell number change is 5.76%. The AC50 under setting [1] is 6.51 µM [rising, single point].

In the case of `COCCNC(=S)N/N=C/c1ccc(OCc2ccc(C(=O)OC)cc2)c(OC)c1`, the cell number change is 14.3%. The AC50 under setting [1] is 6.51 µM [rising, partial curve].

In the case of `CCOc1cc(Br)cc(/C=C2\SC(=Nc3ccccc3)NC2=O)c1O`, the cell number change is -97.6%. For the same molecule, the AC50 under setting [2] is 16.4 µM [falling, single point]. Moreover, under setting [1], the AC50 was 23.1 µM [falling, single point].

Regarding `CCn1c(=O)cc(SCC(=O)N2CCC(C)CC2)c2ccccc21`, the cell number change was -13.5%. The AC50 under setting [2] is 2.59 µM [falling, single point]. Further, the AC50 under setting [1] is 6.51 µM [falling, single point].

Take `CN1CCN(c2ccc(NC(=O)c3cc(Cl)c4c(c3)OCCO4)cc2)CC1`: the cell number change was found to be 27.5%.

On to `O=S(=O)(Nc1cccc(-c2cn3c(n2)SCC3)c1)c1ccccc1`, for which the cell number change was -15.7%. In addition, the AC50 under setting [1] was 29.1 µM [falling, single point].

On to `COc1ccc(NC(=O)c2sc3nc(N4CCOCC4)c4c(c3c2N)CC(C)(C)OC4)c(OC)c1`, for which the cell number change was -8.25%. Further, the AC50 under setting [1] was 6.51 µM [falling, single point].

Turning to `COc1ccc(N2CC(O)=C(c3nc4ccccc4s3)C2=N)cc1`, the cell number change was -2.59%. The AC50 under setting [2] was 0.103 µM [rising, full curve, poor fit]. Also, the AC50 under setting [1] is 0.411 µM [rising, partial curve, poor fit].

On to `O=C(CSc1nc2ccccc2c(=O)[nH]1)Nc1ccccc1O`, for which the cell number change stood at 11.5%. For the same molecule, under setting [1], the AC50 is 0.116 µM [falling, single point].

As to `CCc1nc(CN2CCCC(C(=O)c3ccc4c5c(cccc35)CC4)C2)c(C)[nH]1` (stereo unspecified), the cell number change was determined as 10.1%.

Consider `Cc1ccccc1C(=O)NCC(=O)NCC1(N2CCOCC2)CCCCC1`, for which the cell number change was found to be 6.83%.

On to `COc1cccc(-c2nc(-c3ccc(NC(=O)c4cccnc4)cc3)no2)c1`, for which the cell number change is 1.12%. Moreover, the AC50 under setting [1] is 16.4 µM [rising, single point].

On to `CC1(C)C2CCC1(C)C(OC(=O)c1ccc(O)cc1)C2` (stereo unspecified), for which the cell number change is -54.7%. Under setting [2], the AC50 was 29.1 µM [falling, single point]. In addition, under setting [1], the AC50 was 20.6 µM [falling, partial curve].

As for `Cc1c(-c2n[nH]c(=S)n2-c2ccc(C(F)(F)F)cc2)nnn1-c1ccccc1`, the cell number change stood at 26.6%. The half-maximal activity concentration (AC50) under setting [1] is 3.66 µM [rising, full curve].

In the case of `COc1ccc(NC(=O)/C(=C\c2ccco2)NC(=O)c2ccco2)cc1`, the cell number change was -2.94%. Besides, the concentration at half-maximal activity (AC50) under setting [1] was 0.00461 µM [rising, full curve, poor fit].

As for `O=C(Nc1nnc(-c2ccccc2Cl)o1)c1cc2cc([N+](=O)[O-])ccc2s1`, the cell number change was -38.1%. Under setting [2], the AC50 is 2.06 µM [rising, partial curve, poor fit].

With `CC(C)OC(=O)CC12CN3CC(CC(=O)OC(C)C)(CN(C1)C(=O)c1ccccc1C3=O)C2=O`, the cell number change was determined as 1.42%. Further, the AC50 under setting [1] is 6.51 µM [rising, single point].

For `COc1cc(C(=O)NC(=S)Nc2ccc([N+](=O)[O-])cc2C)cc(OC)c1OC`, the cell number change was -0.683%. The AC50 under setting [1] was 0.366 µM [rising, partial curve].

Take `O=[N+]([O-])c1ccc2c(c1)Nc1nc3ccccc3nc1N2`: the cell number change worked out at 15.9%. Under setting [1], the AC50 is 29.1 µM [falling, single point].

Regarding `CCN1C(=O)c2cccc3c(S(=O)(=O)N(C(=O)c4ccncc4)c4ccc(OC)cc4)ccc1c23`, the cell number change amounted to 8.39%. The AC50 under setting [1] was 1.84 µM [rising, full curve, poor fit].

Regarding `O=C(NC(=C(Cl)Cl)S(=O)(=O)c1ccc(Cl)cc1)c1ccccc1`, the cell number change was -13%. Moreover, the AC50 under setting [2] is 0.82 µM [rising, single point]. For the same molecule, the AC50 under setting [1] is 0.461 µM [rising, partial curve, poor fit].

In the case of `CCOC(=O)c1ccccc1NC(=O)Cn1c(-c2nonc2N)nc2ccccc21`, the cell number change came out at 31.8%. Also, under setting [2], the AC50 was 2.59 µM [rising, full curve, poor fit]. Besides, the AC50 under setting [1] is 23.1 µM [rising, single point].

For the molecule `O=C(c1cc(Cl)nc2ccccc12)N1CCN(S(=O)(=O)c2cccc(C(F)(F)F)c2)CC1`, the AC50 under setting [1] is 0.517 µM [rising, full curve, poor fit].

Take `COc1ccc(CCNC(=O)c2cc(CC(C)C)on2)cc1OC`: the AC50 reads like this: under setting [2], 1.16 µM [rising, single point]; under setting [1], 1.16 µM [rising, single point].

On to `CCCc1ccc(-c2c(C)sc(NC(=O)c3ccnn3C)c2C#N)cc1`, for which the half-maximal activity concentration (AC50) runs as follows: under setting [2], 0.184 µM [rising, full curve]; under setting [1], 0.13 µM [rising, full curve, poor fit].

For the molecule `CCOc1ccc(C(=O)CC(C(=O)O)N2CCN(Cc3ccccc3)CC2)cc1` (stereo unspecified), the cell number change is -74.5%. Also, the AC50 under setting [2] was 14.6 µM [falling, partial curve]. Besides, under setting [1], the AC50 was 5.17 µM [falling, partial curve, poor fit].

For the molecule `Cc1ccc(C(=O)NCCc2nnc3ccc(SCC(=O)N4CCCCC4)nn23)cc1`, the cell number change is -30.3%. Besides, the AC50 under setting [2] was 29.1 µM [falling, partial curve]. Moreover, the AC50 under setting [1] is 29.1 µM [falling, single point].

Take `CC1(C)Cc2c(sc3ncn4nc(CCC(=O)O)c(=O)nc4c23)CO1`: the cell number change was -0.191%.

Turning to `CCN(CC)CCOC(=O)c1cccc(OC)c1`, the cell number change was -24.1%. Moreover, the AC50 under setting [2] is 6.51 µM [falling, single point]. The AC50 under setting [1] is 6.51 µM [falling, single point].

Regarding `CCOC(=O)C1CCCN(S(=O)(=O)c2ccc(S(=O)(=O)N3CCCC3)cc2)C1` (stereo unspecified), the cell number change was 72.3%. The AC50 under setting [2] was 20.6 µM [rising, single point].

On to `Cn1c(CO)cnc1SCc1ccc(F)cc1`, for which the cell number change was -11%.

On to `O=C(NCCN1CCc2ccccc2C1)Nc1ccc([N+](=O)[O-])cc1`, for which the cell number change turned out to be 22.2%. In addition, under setting [1], the AC50 was 29.1 µM [rising, single point].

Take `COc1ccc(-c2nc(Cn3c(SCc4ccc(F)cc4)nc4ccncc43)c(C)o2)cc1OC`: the cell number change came to 1.84%. Besides, the AC50 under setting [1] was 0.366 µM [rising, full curve, poor fit].

As for `COC(=O)CCC(=O)NNC(=O)CCCOc1ccc(Cl)cc1Cl`, the cell number change came to 1.15%.

For `Cc1ccc(/C=N/NC(=O)CCCOc2ccc(Cl)cc2Cl)cc1[N+](=O)[O-]`, the cell number change is -0.934%. Besides, the AC50 under setting [2] is 1.46 µM [rising, partial curve, poor fit]. Moreover, the AC50 under setting [1] was 1.84 µM [rising, partial curve].

Take `Cc1cc(C(=O)COC(=O)CN=C2NS(=O)(=O)c3ccccc32)c(C)n1CCc1ccc(Cl)cc1`: the cell number change is -13.2%. Also, the AC50 under setting [2] was 6.51 µM [falling, single point].

Take `S=c1[nH]nc(-c2cccc3ccccc23)n1-c1cccnc1`: the cell number change is 21.3%. Moreover, the AC50 under setting [1] was 6.51 µM [rising, full curve].

For `Cc1ccc(-c2nn(-c3ccccc3)cc2/C=N/NC(=O)c2ccc(Br)o2)cc1`, the cell number change was -30.8%. Under setting [2], the AC50 was 29.1 µM [falling, single point]. In addition, the concentration at half-maximal activity (AC50) under setting [1] was 4.61 µM [falling, single point].

With `O=C(Oc1cccc2cccnc12)c1cccc(N2C(=O)C3C4CCC(C4)C3C2=O)c1` (stereo unspecified), the cell number change amounted to 69.8%. Also, under setting [2], the AC50 was 29.1 µM [rising, single point].

On to `CCOC(=O)C1=C(COC(=O)C2CC(=O)N(c3ccc(C)cc3)C2)NC(=O)NC1C` (stereo unspecified), for which the cell number change was -10%.

For the molecule `Cc1oc(-c2ccccc2F)nc1CS(=O)(=O)CC(=O)NCCCN1CCc2ccccc2C1`, the cell number change stood at 1.22%. In addition, the AC50 under setting [1] is 29.1 µM [rising, single point].

On to `NC(=O)c1nn(Cc2ccccc2)c(=O)c2ccccc12`, for which the cell number change was -15.1%. The AC50 under setting [2] is 0.116 µM [falling, full curve, poor fit]. Also, under setting [1], the AC50 was 29.1 µM [rising, single point].

Regarding `O=C(NC1CCCCC1)C(c1cccnc1)N(C(=O)CCl)c1cccc(Cl)c1` (stereo unspecified), the cell number change was -11.8%. In addition, the AC50 under setting [1] is 18.4 µM [falling, single point].

`CC12CC3CC(C)(C1)CC(C(=O)Nc1nncs1)(C3)C2`: the cell number change was -4.4%. The AC50 under setting [1] is 29.1 µM [rising, single point].

For the molecule `COc1ccc(C(=O)C[n+]2ccc3ccccc3c2C)cc1`, the cell number change was -15.8%. Further, the AC50 under setting [1] was 0.651 µM [falling, partial curve, poor fit].

As to `O=C(CCN1C(=O)/C(=C/c2ccccc2Cl)SC1=S)Nc1ccccc1C(=O)O`, the cell number change stood at 13%. Further, the AC50 under setting [1] is 3.26 µM [rising, full curve, poor fit].

For the molecule `O=C(NCc1ccncc1)C(=O)Nc1nc2ccccc2s1`, the cell number change came to 35.7%. Under setting [1], the AC50 was 29.1 µM [rising, partial curve].

As for `Nc1ccc2nc[nH]c2c1`, the cell number change is 90.9%.

As for `CCOC(=O)c1cnc(SCC(=O)NCc2ccco2)nc1N`, the cell number change turned out to be 0.651%. Further, under setting [1], the AC50 is 1.46 µM [falling, partial curve].

As to `CCC(C)c1ccccc1NC(=O)COC(=O)CCc1cc(OC)c(OC)c(OC)c1` (stereo unspecified), the cell number change is -8.66%. In addition, the AC50 under setting [1] was 7.31 µM [falling, single point].

On to `Cn1nc(-c2ccc(OCC(=O)Nc3cccnc3)cc2)c2ccccc2c1=O`, for which the AC50 under setting [1] was 5.17 µM [rising, single point].

As to `CC(=O)Nc1ccc(NC(=O)C(C)OC(=O)CCCOc2ccc(Cl)c(C)c2)cc1` (stereo unspecified), the AC50 under setting [1] was 0.00461 µM [rising, full curve, poor fit].

As for `CC1=C(C#N)C(NC(=O)C(C)(C)C)(C(F)(F)F)C(=O)N1` (stereo unspecified), the cell number change was -6.21%. The AC50 under setting [2] was 0.651 µM [falling, single point].

`O=C(OCC(=O)N1CCN(c2ccccc2)CC1)c1ccc(O)cc1O`: the cell number change was -1.67%. Further, the AC50 under setting [1] is 0.00411 µM [rising, full curve, poor fit].
